Source: article doi:10.1101/129551
Results are given in words; binding and its absence hold for the method and conditions named. Binding seen in cells or lysates may run through a third protein. Some results given as binding are weak or reduced against the parent protein; the word gives no strength.

Amino acid sequences for entries named in this document (tags omitted). Residues count along the entry.
UniProt P63044: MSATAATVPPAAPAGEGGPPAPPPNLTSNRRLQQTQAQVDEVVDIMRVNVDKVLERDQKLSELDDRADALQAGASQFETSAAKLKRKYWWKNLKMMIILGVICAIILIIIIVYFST
UniProt P05067, residues 672-713: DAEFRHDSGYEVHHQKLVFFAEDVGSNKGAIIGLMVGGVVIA
UniProt Q62277: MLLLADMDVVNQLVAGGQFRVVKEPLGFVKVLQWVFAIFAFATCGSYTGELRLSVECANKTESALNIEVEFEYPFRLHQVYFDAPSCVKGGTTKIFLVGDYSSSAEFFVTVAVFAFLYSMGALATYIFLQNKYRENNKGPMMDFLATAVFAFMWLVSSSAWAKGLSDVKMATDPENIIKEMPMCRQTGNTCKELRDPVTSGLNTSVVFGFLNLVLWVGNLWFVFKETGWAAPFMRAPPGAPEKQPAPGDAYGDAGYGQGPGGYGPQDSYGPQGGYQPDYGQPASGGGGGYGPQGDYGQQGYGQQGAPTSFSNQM
UniProt Q8BGN8: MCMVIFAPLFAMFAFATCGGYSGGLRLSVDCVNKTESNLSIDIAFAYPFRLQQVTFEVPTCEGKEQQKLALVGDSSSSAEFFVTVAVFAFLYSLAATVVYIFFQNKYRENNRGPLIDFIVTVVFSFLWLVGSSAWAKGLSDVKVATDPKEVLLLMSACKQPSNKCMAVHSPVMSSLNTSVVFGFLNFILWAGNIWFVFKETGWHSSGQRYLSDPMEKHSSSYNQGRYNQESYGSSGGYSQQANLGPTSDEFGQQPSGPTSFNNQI

Columns and labels:
[1] = biological target: synaptobrevin 2 (VAMP2), endogenous mouse (mouse (endogenous in cortical neurons and brain synaptosomes)) (UniProt P63044); experiment: co-IP
β-amyloid peptide Aβ42 = β-amyloid peptide Aβ42 (UniProt P05067); experiment: pull-down
[2] = biological target: synaptophysin (SYP), endogenous mouse (mouse (endogenous in cortical neurons and brain synaptosomes)) (UniProt Q62277); experiment: co-IP

Substance	binding [1]	binding (β-amyloid peptide Aβ42)	binding [2]
synaptoporin (SYNPR), endogenous mouse (from UniProt Q8BGN8 1-265)	binds	no binding	–
synaptobrevin 2 (VAMP2), endogenous mouse (from UniProt P63044 1-116)	–	–	binds
synaptophysin (SYP), endogenous mouse (from UniProt Q62277 1-314)	–	binds	–
